Measurements reported in PubChem BioAssay AID504793 (Drosophila RNAi Screening Center, 2011)
The deposit covers about 23,000 reagents; shown is an unselected part of those that have a named target and a result. Of all reagents, 62 (0.27%) are marked active. 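Calls come from follow-up tests whose scores are not deposited, so confirmed genes may have low counts here; counts are not normalised per plate.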 The raw values are shown without normalisation. A plus sign joins genes that one reagent is predicted to hit. Reagent sequences are not shown.

Assay: 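Genes required for cells to halt at G2/M after double-strand DNA breaks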 (primary screen)
System: Drosophila S2R+ cells
Reagent: long dsRNA against Drosophila genes, about 0.25 µg dsRNA per well
Time to read-out: 4 days of dsRNA, then 4 hours of drug before read-out
Treatment: doxorubicin 0.5 µM for 4 hours to cause double-strand breaks, in cells also given a low, harmless dose of dsRNA against nbs to sensitise the assay
Read-out: 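Mitotic index as the number of phospho-histone H3-positive cells in each well following doxorubicin, given as raw counts without normalisation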
Scale: mitotic cells: higher = more cells in mitosis, weaker G2 arrest
Active means: 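Genes are called active only when high mitotic counts were reproduced with independent dsRNAs and mitosis was checked for delay without damage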
Meaning of the calls: active = confirmed in follow-up tests; inactive = not confirmed

Target gene	DRSC id	mitotic cells, replicate 1	mitotic cells, replicate 2	Outcome
Akr1B	DRSC10581	4		inactive
dikar	DRSC09699	6		inactive
dikar	DRSC22261	13		inactive
dikar	DRSC26562	4		inactive
CG16775	DRSC10225	4		inactive
CG6283	DRSC16009	11		inactive
CG6283	DRSC29913	10		inactive
CheB42b	DRSC22878	8		inactive
alien	DRSC03482	10		active
CG6726	DRSC16101	6		inactive
CG6726	DRSC28130	3		inactive
CG11342	DRSC08175	1		inactive
CG11342	DRSC26281	3		inactive
Pgant4	DRSC00717	8		inactive
Pgant4	DRSC29585	6		inactive
CRMP	DRSC12073	9		inactive
CRMP	DRSC12345	4		inactive
CRMP	DRSC27638	12		inactive
PGRP-SC1a	DRSC06482	9		inactive
CG15803	DRSC15121	7		inactive
CG31612	DRSC03697	8		inactive
CG31612	DRSC03698	11		inactive
Chmp1	DRSC10401	8		inactive
Chmp1	DRSC25878	11		inactive
CG5478	DRSC15814	3		inactive
ppk3	DRSC04275	5		inactive
ppk3	DRSC25960	3		inactive
msb1l	DRSC03572	3		inactive
msb1l	DRSC26438	5		inactive
CG8839	DRSC07285	5		inactive
Cnx14D	DRSC20214	7		inactive
Cnx14D	DRSC25425	9		inactive
B-H1	DRSC21922	6		inactive
B-H1	DRSC27190	10		inactive
tefu	DRSC16060	8		inactive
CG14810	DRSC17693	37		inactive
CG14810	DRSC17961	16		inactive
CG14810	DRSC25199	15		inactive
DNaseII	DRSC16310	9		inactive
CG7384	DRSC03053	9		inactive
RapGAP1	DRSC02293	5	12	inactive
RapGAP1	DRSC02294	4		inactive
RapGAP1	DRSC03406	4		inactive
RapGAP1	DRSC28628	6		inactive
RapGAP1	DRSC29428	4		inactive
CG10073	DRSC05961	8		inactive
CG12857	DRSC06197	4		inactive
Ass	DRSC28238	6		inactive
Gr58a	DRSC03910	8		inactive
RpLP0-like	DRSC06424	4		inactive
RpLP0-like	DRSC28206	5		inactive
CG15443	DRSC00455			inactive
CG3760	DRSC04415	10		inactive
Argk2	DRSC10483	3		inactive
Argk2	DRSC23349	23		inactive
Argk2	DRSC28762	4		inactive
CG1965	DRSC12577	7		inactive
CG1965	DRSC21828	12		inactive
sw + Sdic4 + Sdic3 + 2 more	DRSC20696	35		inactive
sw + Sdic4 + Sdic3 + 2 more	DRSC29154	15		inactive
CG30060	DRSC05419	10		inactive
snu	DRSC16589	6		inactive
Dnaaf5	DRSC13032	3		inactive
Tmtc2	DRSC24987	4		inactive
CG9970	DRSC08644	8		inactive
CG14151	DRSC10153	1		inactive
Est-6	DRSC11162	8		inactive
yellow-c + CIAPIN1	DRSC01898	6		inactive
CG8046	DRSC07059	2		inactive
Pdxk	DRSC10419	8		inactive
G9a	DRSC18619			inactive
CG1722	DRSC20547	1		inactive
Ets21C	DRSC00751	4		inactive
CG31677	DRSC22023	14		inactive
CG14689	DRSC14912	4		inactive
CG14689	DRSC28117	6		inactive
CG42516 + Pbp49	DRSC06073	10		inactive
CG13040	DRSC09921	1		inactive
CG13040	DRSC28429	14		inactive
CG12078	DRSC08242	6		inactive
CG12259	DRSC23281	4		inactive
CG12259	DRSC28180	5		inactive
CG31206	DRSC13388	6		inactive
CG9826	DRSC04570	3		inactive
Galphao	DRSC07430	7		inactive
Galphao	DRSC29710	4		inactive
Argk1	DRSC09668	4		inactive
Argk1	DRSC10460	4		inactive
Argk1	DRSC21558	12		inactive
Argk1	DRSC22665	2		inactive
CG16853	DRSC01877	5		inactive
Oseg2	DRSC08343	5		inactive
CG13577	DRSC04213	2		inactive
CG11438	DRSC11660	1		inactive
Ndc1	DRSC15895	7		inactive
CG13121 (retired record)	DRSC02217	9		inactive
CG14234	DRSC19317	27		inactive
CG14234	DRSC19589	4		inactive
CG18180	DRSC10304			inactive
CG18180	DRSC25404	11		inactive
CG10638	DRSC09762	5		inactive
CG10638	DRSC29762	3		inactive
Atat	DRSC10392	10		inactive
Cog3	DRSC00585	5		inactive
AIF	DRSC00696	9		inactive
mEFTu2	DRSC06163	4		inactive
CG32260	DRSC08084	3		inactive
CG32260	DRSC24480	9		inactive
CG9263	DRSC03176	6		inactive
Vps15	DRSC16553	8		inactive

A run of entries taken from the entries so far, for reference:
Target gene	DRSC id	mitotic cells, replicate 1	mitotic cells, replicate 2	Outcome
ppk3	DRSC25960	3		inactive
msb1l	DRSC03572	3		inactive
msb1l	DRSC26438	5		inactive
CG8839	DRSC07285	5		inactive
Cnx14D	DRSC20214	7		inactive
